Fewer than 10 of roughly 1,800 compounds were called active.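 How the source made its calls: active means inhibition of granule release above a set limit; inactive means the rest.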 This is one part of the list.
assay: LAMP-1 surface externalization blockers in TALL-104 cells – cell-based, flow cytometry, validation set (AID 651664); settings: TALL-104 LAMP-1 externalization, at 15.2 µM, active compounds read high, stimulated with thapsigargin and PMA

inhibition, inactive:
CC1=NN(C(N)=S)C(=O)C1N=Nc1ccccc1C (centres undefined) 1.6%
CCN1CCCC1CNc1ncnc2c1[nH]c1ccc(F)cc12 (centres undefined) 0.8%
O=C1CCC(=O)N1c1nc2nc(-c3ccccc3)cc(=O)n2[nH]1 -1.6%
CCOC(=O)C1CCCN(CC(=O)Nc2c(C(=O)OC)[nH]c3ccc(Br)cc23)C1 (centres undefined) 3.8%
COc1cc(/C=N/NC(=O)c2ccncc2)ccc1OC(=O)c1ccc([N+](=O)[O-])cc1 -2.9%
Clc1cc(Br)ccc1OCCOCCN1CCOCC1 -2.7%
N/C(=N\OC(=O)CCCN1C(=O)c2ccccc2C1=O)c1ccc(Br)cc1 -3.6%
C=CCn1c(=O)/c(=C\c2ccsc2)s/c1=C(/C#N)C(=O)NCCN1CCOCC1 -2.9%
CCOc1nnc(C)c2c(C)n(-c3ccc(Cl)cc3)nc12 0.2%
N#CCCN1CCN(Cn2c3ccccc3c3ccccc32)CC1 0.8%
O=C1C=C(Nc2ccc(Cl)cc2)CC(c2ccco2)C1 (centres undefined) -2.8%
NC(=O)C(c1ccc(Cl)cc1)c1ccc(Sc2ccccc2)nn1 (centres undefined) -1.6%
CCN(CC)S(=O)(=O)c1cccc2cc(C(=O)O)c(O)cc12 0.3%
Cc1ccc(S(=O)(=O)c2c(COC(=O)c3cccc(Cl)c3)c(-c3ccccc3)nn2C)cc1 0.3%
CN(C)C(=O)c1ccc(-n2nc(C(F)(F)F)c3c2CCCC3)cc1 1%
CCNc1nc(NCC)nc(N2CC(=O)N(CC(=O)OCC)C2=N)n1 -2.9%
CCOC(=O)N1CCC(NC(=O)c2ccc3nc(N4CCOCC4)sc3c2)CC1 1%
CCOc1cc(CNc2ccc(N(C)C)cc2)cc(Br)c1OCC(=O)NC(C)(C)C 0.2%
Cc1ccc(C(C)C)c(OCC(O)CN2CCN(CCO)CC2)c1 (centres undefined) -2.1%
CC1(C)Cc2c(c(N3CCOCC3)nc3sc4c(NCc5ccco5)nnnc4c23)CS1 0.9%
CCCc1cc2c(cc1NC(=O)c1ccccc1Cl)OCO2 -1.3%
COc1ccc(NC(=O)CN2C(=O)c3cccc4cccc2c34)c(OC)c1 -1.7%
COC(=O)[C@@H](NC(=O)N1CCN(c2cccc(C(F)(F)F)c2)CC1)C(C)C -1.3%
CC(OC(=O)Cn1c(C(F)(F)F)nc2ccccc21)C(=O)N1CCCc2ccccc21 (centres undefined) 3.5%
CCCCCNc1nc2ccccc2nc1NS(=O)(=O)c1cccs1 0.3%
Cc1cc(NC(=O)c2cc3n(n2)C(C(F)(F)F)CC(c2ccco2)N3)n(-c2ccccc2)n1 (centres undefined) 3.7%
COCCn1c(SCC(=O)Nc2cccc(S(N)(=O)=O)c2)nc2ccccc21 -1.1%
COc1cc2c(cc1NC(=O)C(C)OC(=O)C1CC(=O)N(Cc3ccco3)C1)oc1ccccc12 (centres undefined) 1.8%
CCOC(=O)Nc1nc(C)c(C(=O)c2ccc(Cl)cc2)s1 -2.2%
CCCc1nnc(NC(=O)CC(=O)Nc2ccccc2C(=O)O)s1 1.2%
Cc1ccc(NC(=O)Nc2cccs2)cc1 -2.6%
CC(C)(C)N(NC(=O)Nc1ccc(Cl)c(Cl)c1)C(=O)c1ccccc1 -5.3%
O=C(O)c1cccc(Cn2c(Cl)c(/C=N/NC(=O)c3ccccc3Cl)sc2=O)c1 4%
CC(=O)Nc1ccc(C(=O)CSc2ncn(-c3ccccc3)n2)cc1 -3.6%
Cc1ccc(-c2nn3c(C)nnc3c3ccccc23)cc1S(=O)(=O)NC(C)c1ccccc1 (centres undefined) 8.1%
O=C(/C=N/O)Nc1ccc(F)cc1 -2.8%
CCOC(=O)C1CCN(C(=O)COc2cc(C)c(Br)cc2C)CC1 0.2%
O=C(O)c1cc(NCc2ccc(F)cc2)ccc1N1CCOCC1 -4.1%
CCOC(=O)/C(=C\c1cccnc1)C(=O)c1cc(C(C)=O)c(Nc2ccccc2)s1 -1.3%
CCCn1c2c(c(O)c(C(=O)Nc3ncccc3O)c1=O)CCCC2 -0.4%
NC(=S)N/N=C/c1ccc(-c2cccc([N+](=O)[O-])c2)o1 1.9%
COC(=O)C1=C(N)Oc2cc(C)n(Cc3cccnc3)c(=O)c2C1c1ccc(OC)c(OC)c1OC (centres undefined) -0.4%
O=C(CSc1nc2ccccc2o1)NC(=O)NCc1ccccc1 -3.4%
Cc1cc(=O)oc(C)c1C(=O)NCCc1ccccc1 -4.7%
Cc1cc(NC(=O)C2C3C(=O)N(Cc4ccc(Cl)cc4)C(C(=O)NC4CCCCC4)C34C=CC2(C)O4)no1 (centres undefined) 0.3%
COc1cccc(CNC(=O)c2cc3oc4ccccc4c3n2C)c1OC -1.6%
COc1ccc(C(=O)/C=C/Nc2c(C)n(C)n(-c3ccccc3)c2=O)cc1OC -1.5%
COC(=O)c1ccc(Oc2nc(Nc3ccc(F)cc3)nc(N3CCCC3)n2)cc1 0.5%
COc1cccc(NC(=O)CNC(C)CCC(C)C)c1 (centres undefined) 1.5%
CC1(C)CC(=O)C2=C(C1)Oc1ncn3nc(-c4cccnc4)nc3c1C2c1ccccc1 (centres undefined) -0.9%
CCOC(=O)Nc1ccc2c(c1)N(C(=O)CCN1CCN(CCO)CC1)c1ccccc1S2 -0.6%
CCCCc1nnc(NC(=O)CC(=O)Nc2ccccc2C(=O)O)s1 4.3%
CC(C)CCn1c(Oc2ccc(Cl)cc2)nc2c1c(=O)n(C)c(=O)n2C -1.7%
N#Cc1nc(-c2ccco2)oc1NCCc1ccccc1 0.9%
CCOC(=O)c1c2ccc(OCC(=O)N/N=C/c3ccc(C)cc3)cc2n2ccccc12 1.1%
O=C(Cc1ccccc1)NC(NCCc1ccccc1)C(Cl)(Cl)Cl (centres undefined) 5.8%
CCOC(=O)c1c(C)nc2ccc(C)cn12 -0.1%
CCn1c(SCC(N)=O)nc2sc3c(c2c1=O)CCCC3 6.4%
CCCN1C(=O)SC(CC(=O)Nc2ccccc2C)C1=O (centres undefined) -2.2%

Of the compounds above, these contain a cyano group:
inhibition, inactive:
C=CCn1c(=O)/c(=C\c2ccsc2)s/c1=C(/C#N)C(=O)NCCN1CCOCC1 -2.9%
N#CCCN1CCN(Cn2c3ccccc3c3ccccc32)CC1 0.8%
N#Cc1nc(-c2ccco2)oc1NCCc1ccccc1 0.9%

— PubChem BioAssay AID651664 (NMMLSC, 2012)
